PubChem BioAssay AID1259424 | University of Nebraska Medical Center | 2018
In all, the deposit lists about 14,000 reagents; below is a random part of them. 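Higher correlation or smaller distance means closer resemblance to KSR1 loss; control wells, including KSR1 knockdowns, recur on many plates.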 A reagent listed more than once was tested more than once; the source does not tell the runs apart. Not given: the time to read-out.

Aim: 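Rank knockdowns across the genome by resemblance to the KSR1 depletion profile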 (primary screen)
Cells: human HCT116 colon cancer cells
Knock-down reagent: siRNA pool against human genes, 50 nM
Measurement: 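Six signature mRNAs by branched-DNA multiplex assay, scaled to two housekeeping genes and non-targeting median, log2; matched to mean KSR1 knockdown profile by Pearson correlation and euclidean distance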
Direction: mean correlation with KSR1 profile and KSR1 correlation: higher = expression change more like KSR1 knockdown; mean distance from KSR1 profile: higher = expression change less like KSR1 knockdown

| target | mean correlation with KSR1 profile | mean distance from KSR1 profile | KSR1 correlation, replicate 1 | KSR1 correlation, replicate 2 | KSR1 correlation, replicate 3 |
| --- | --- | --- | --- | --- | --- |
| CMTM7 | 0.231 | 1.86 | 0.696 | -0.131 | 0.188 |
| CCN2 | 0.0497 | 2.33 | 0.286 | 0.069 | 0.00242 |
| OR7C2 | 0.458 | 2.04 | 0.525 | 0.647 | -0.0437 |
| PUS3 | 0.565 | 1.75 | 0.372 | 0.632 | 0.259 |
| STS | -0.0595 | 2.04 | -0.241 | -0.169 | 0.206 |
| LAT2 | -0.456 | 4.01 | -0.326 | -0.55 | -0.476 |
| OPRPN | 0.113 | 2.27 | 0.0923 | -0.00692 | 0.118 |
| GOLM1 | -0.357 | 6.13 | -0.348 | 0.252 | 0.301 |
| BTN2A1 | -0.32 | 2.2 | -0.432 | -0.137 | -0.47 |
| BTN2A1 | -0.438 | 1.66 | -0.371 | -0.505 | -0.266 |
| GJA1 | -0.579 | 2.4 | -0.673 | -0.504 | -0.658 |
| BFAR | 0.0991 | 1.28 | -0.233 | 0.303 | 0.139 |
| PPP3R1 | -0.14 | 3.72 | -0.168 | -0.28 | -0.27 |
| LAMA4 | -0.183 | 4.81 | -0.0364 | -0.287 | -0.251 |
| TBC1D14 | -0.244 | 3.94 | -0.371 | 0.0834 | -0.164 |
| MED26 | -0.209 | 2.64 | -0.21 | -0.12 | -0.524 |
| ZNF527 | 0.0272 | 2.39 | 0.0819 | 0.275 | -0.499 |
| RFX1 | 0.262 | 2.22 | 0.469 | 0.728 | 0.363 |
| THBS1 | 0.255 | 1.61 | 0.318 | 0.108 | 0.136 |
| MTARC1 | -0.539 | 6.06 | 0.37 | 0.323 | -0.38 |
| SGCE | -0.0865 | 2.69 | -0.129 | -0.24 | 0.00751 |
| HNF1B | 0.632 | 1.27 | 0.549 | 0.638 | 0.629 |
| NDUFV3 | -0.833 | 1.96 | -0.349 | -0.876 | -0.581 |
| SPATA9 | 0.78 | 0.991 | 0.668 | 0.686 | 0.783 |
| SERPINB13 | -0.547 | 3 | -0.531 | -0.473 | -0.609 |
| HAUS3 | 0.446 | 1.45 | 0.583 | 0.492 | 0.325 |
| GSTM5 | -0.432 | 2.48 | -0.636 | -0.469 | -0.357 |
| DAGLA | -0.0549 | 2.88 | 0.0284 | 0.0216 | -0.341 |
| RNF19A | -0.315 | 2.07 | -0.128 | -0.281 | -0.422 |
| DDX24 | -0.143 | 4.95 | 0.0355 | -0.225 | -0.152 |
| ITIH1 | -0.49 | 2.31 | -0.354 | -0.631 | -0.594 |
| THRSP | -0.563 | 2.51 | -0.651 | -0.48 | -0.608 |
| MRPL18 | 0.194 | 1.17 | -0.276 | -0.15 | 0.157 |
| VIM | -0.562 | 2.54 | -0.455 | -0.564 | -0.664 |
| AREG | -0.322 | 2.04 | 0.0971 | -0.286 | -0.658 |
| ADAMTS6 | -0.219 | 1.49 | -0.179 | -0.349 | -0.211 |
| CACNG6 | 0.107 | 2.95 | 0.343 | 0.227 | 0.18 |
| ZMYM6 | -0.317 | 1.72 | -0.212 | -0.38 | -0.129 |
| PYCARD | 0.4 | 1.71 | 0.229 | 0.33 | 0.495 |
| CFH | -0.641 | 3.02 | -0.791 | -0.714 | -0.655 |
| MAX | 0.404 | 2.58 | 0.564 | 0.258 | 0.219 |
| KLHDC10 | 0.389 | 1.33 | 0.398 | 0.269 | 0.308 |
| LSAMP | -0.0805 | 2.53 | 0.039 | -0.384 | -0.0575 |
| PTCD3 | -0.0124 | 2.19 | 0.0461 | -0.141 | -0.00615 |
| CACNG4 | -0.209 | 0.951 | -0.846 | -0.499 | -0.231 |
| CAPN1 | -0.00702 | 2.18 | 0.0229 | 0.221 | -0.389 |
| FCRL1 | 0.0414 | 1.52 | 0.131 | -0.0606 | -0.0906 |
| SNAPC1 | -0.059 | 2.05 | -0.134 | -0.169 | 0.0211 |
| IFT122 | 0.212 | 2.87 | 0.212 | 0.146 | 0.341 |
| GPATCH1 | 0.0241 | 3.66 | 0.127 | -0.127 | 0.0971 |

7 of these entries, reformatted:
target | mean correlation with KSR1 profile | mean distance from KSR1 profile | KSR1 correlation, replicate 1 | KSR1 correlation, replicate 2 | KSR1 correlation, replicate 3
SPATA9 | 0.78 | 0.991 | 0.668 | 0.686 | 0.783
SERPINB13 | -0.547 | 3 | -0.531 | -0.473 | -0.609
HAUS3 | 0.446 | 1.45 | 0.583 | 0.492 | 0.325
GSTM5 | -0.432 | 2.48 | -0.636 | -0.469 | -0.357
DAGLA | -0.0549 | 2.88 | 0.0284 | 0.0216 | -0.341
RNF19A | -0.315 | 2.07 | -0.128 | -0.281 | -0.422
DDX24 | -0.143 | 4.95 | 0.0355 | -0.225 | -0.152
